Test results reported in patent US20120022129A1, “Targeting of Histone Deacetylase 2, Protein Kinase CK2, and Nuclear Factor NRF2 For Treatment of Inflammatory Diseases” (priority 2008, published 2012).
These are yes or no findings as the source states them, for the method shown. Binding seen in cells or lysates may run through a third protein. Some results given as binding are weak or reduced against the parent protein; the word gives no strength.

Chains of the proteins cited; added tags and fusions are not shown. Lines headed by an entry give the natural chain unless they say otherwise; changes in a name come on top.
UniProt Q92769: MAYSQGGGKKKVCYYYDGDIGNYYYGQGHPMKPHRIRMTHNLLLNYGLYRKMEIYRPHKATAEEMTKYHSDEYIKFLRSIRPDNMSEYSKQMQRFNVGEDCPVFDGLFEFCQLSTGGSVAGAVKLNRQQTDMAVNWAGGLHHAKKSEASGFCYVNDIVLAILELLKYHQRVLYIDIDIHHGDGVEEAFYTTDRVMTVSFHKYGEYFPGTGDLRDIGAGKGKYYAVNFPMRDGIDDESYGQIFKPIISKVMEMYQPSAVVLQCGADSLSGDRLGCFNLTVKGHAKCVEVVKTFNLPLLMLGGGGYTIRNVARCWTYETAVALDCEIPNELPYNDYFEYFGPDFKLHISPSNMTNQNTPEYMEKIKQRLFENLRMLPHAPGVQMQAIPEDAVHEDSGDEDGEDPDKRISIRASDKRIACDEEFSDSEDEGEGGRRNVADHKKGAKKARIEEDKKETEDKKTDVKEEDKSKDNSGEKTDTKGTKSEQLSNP
UniProt Q13547: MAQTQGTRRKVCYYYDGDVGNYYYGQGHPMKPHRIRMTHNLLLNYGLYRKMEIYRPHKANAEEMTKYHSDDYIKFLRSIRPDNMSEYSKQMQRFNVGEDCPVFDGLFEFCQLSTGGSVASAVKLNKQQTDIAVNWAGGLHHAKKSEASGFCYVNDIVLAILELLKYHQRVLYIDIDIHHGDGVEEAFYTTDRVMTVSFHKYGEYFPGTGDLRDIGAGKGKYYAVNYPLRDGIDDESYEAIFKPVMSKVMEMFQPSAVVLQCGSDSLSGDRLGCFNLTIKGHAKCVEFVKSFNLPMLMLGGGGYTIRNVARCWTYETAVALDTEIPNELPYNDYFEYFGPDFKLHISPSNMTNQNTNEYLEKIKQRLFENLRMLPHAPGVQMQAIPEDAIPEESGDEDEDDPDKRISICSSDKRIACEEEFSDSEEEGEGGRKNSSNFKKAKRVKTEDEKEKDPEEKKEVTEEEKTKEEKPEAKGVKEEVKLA

Molecular target: flag-tagged HDAC2 1-400 amino acid mutant (Homo sapiens (Human)) (UniProt Q92769)
Assay: co-immunoprecipitation with anti-flag from CSE-treated H292 cells, western blot (FIG. 19D)

binding: binds
Substance: HDAC1 (from UniProt Q13547 1-482) (enzyme)
